The values that follow come from paper PMC5681435, “Differential Regulation of G1 CDK Complexes by the Hsp90-Cdc37 Chaperone System” (Cell Reports, 2017).

The chains behind the UniProt entries cited, without tags or fusion partners. Residues count along the entry.
UniProt Q00534: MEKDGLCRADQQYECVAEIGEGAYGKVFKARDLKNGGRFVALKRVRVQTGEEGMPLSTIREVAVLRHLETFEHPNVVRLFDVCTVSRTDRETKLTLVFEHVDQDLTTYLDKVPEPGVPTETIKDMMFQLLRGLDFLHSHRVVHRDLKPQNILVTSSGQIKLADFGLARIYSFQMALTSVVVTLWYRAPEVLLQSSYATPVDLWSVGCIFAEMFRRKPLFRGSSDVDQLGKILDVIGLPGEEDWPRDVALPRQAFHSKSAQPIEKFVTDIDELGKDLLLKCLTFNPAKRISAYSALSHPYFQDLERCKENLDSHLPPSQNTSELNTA
UniProt P11802: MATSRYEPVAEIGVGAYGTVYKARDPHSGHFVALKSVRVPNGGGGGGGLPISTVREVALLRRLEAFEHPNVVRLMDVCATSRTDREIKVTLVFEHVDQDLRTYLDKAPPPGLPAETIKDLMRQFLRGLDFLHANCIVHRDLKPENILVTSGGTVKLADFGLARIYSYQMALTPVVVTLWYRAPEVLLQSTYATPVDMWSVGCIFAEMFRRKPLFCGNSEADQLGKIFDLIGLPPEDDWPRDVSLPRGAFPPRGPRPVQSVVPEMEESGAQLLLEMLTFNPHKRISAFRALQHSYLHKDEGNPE
UniProt P24385: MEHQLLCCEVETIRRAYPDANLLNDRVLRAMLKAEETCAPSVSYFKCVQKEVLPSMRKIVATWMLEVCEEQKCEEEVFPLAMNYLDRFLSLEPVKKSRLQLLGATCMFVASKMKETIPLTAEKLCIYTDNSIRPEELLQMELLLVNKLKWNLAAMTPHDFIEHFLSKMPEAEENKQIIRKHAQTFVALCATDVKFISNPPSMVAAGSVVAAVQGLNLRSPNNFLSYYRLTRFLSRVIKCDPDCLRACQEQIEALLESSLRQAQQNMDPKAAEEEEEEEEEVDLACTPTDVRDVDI
UniProt P46527, residues 1-106: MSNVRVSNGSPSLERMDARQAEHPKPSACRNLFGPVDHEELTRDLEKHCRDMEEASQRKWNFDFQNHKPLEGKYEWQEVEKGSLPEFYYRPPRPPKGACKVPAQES
UniProt P38936, residues 1-87: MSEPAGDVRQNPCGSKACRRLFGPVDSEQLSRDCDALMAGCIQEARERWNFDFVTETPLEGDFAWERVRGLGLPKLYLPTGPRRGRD
UniProt P30281: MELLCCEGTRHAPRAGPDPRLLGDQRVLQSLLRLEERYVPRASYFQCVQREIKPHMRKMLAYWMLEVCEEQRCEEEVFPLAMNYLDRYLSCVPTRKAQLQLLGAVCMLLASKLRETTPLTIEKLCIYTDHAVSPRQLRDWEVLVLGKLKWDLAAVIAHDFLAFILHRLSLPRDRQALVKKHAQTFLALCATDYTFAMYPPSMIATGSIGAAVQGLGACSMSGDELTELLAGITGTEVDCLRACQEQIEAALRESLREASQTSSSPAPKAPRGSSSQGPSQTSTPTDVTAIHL

Results are given in words; binding and its absence hold for the method and conditions named. Some results given as binding are weak or reduced against the parent protein; the word gives no strength. For part of these data: Sequences can lack the tags named with a protein.

Assay [1] concerns the target CDK6 (of the CDK6-cyclin D1/D3 complexes used in the FLAG-Cdc37 pull-down) (human) (UniProt Q00534). As to the kind of experiment: pull-down; both purified.
Assay [2] concerns the target GSTCDK6 (human) (UniProt Q00534). As to the kind of experiment: co-purification (GST affinity, then size-exclusion chromatography). (Size exclusion chromatography separates by hydrodynamic size, large species first.)
Assay [3] has the same target. As to the kind of experiment: AlphaScreen or HTRF; both purified. A general note: Alpha assays give light when donor and acceptor beads are brought close together.
The target of assay [4] is GSTCDK6-cyclin D1 complex (UniProt Q00534). Nature of the assay: SEC; both purified.
Assay [5] has as its target GSTCDK4-cyclin D1 complex (UniProt P11802). As to the kind of experiment: SEC; both purified.
Assay [6] deals with GSTCDK6-cyclin D3 complex (UniProt Q00534). Nature of the assay: SEC; both purified.
The target of assay [7] is GSTCDK4-cyclin D3 complex (UniProt P11802). Nature of the assay: SEC; both purified.
For assay [8], the target named is CDK4 (of the CDK4-cyclin D1/D3 complexes used in the FLAG-Cdc37 pull-down) (human) (UniProt P11802). As to the kind of experiment: pull-down; both purified.
Assay [9] has as its target T1, FLAG-tagged Cdc37 (human) (UniProt Q16543).
T1 sequence: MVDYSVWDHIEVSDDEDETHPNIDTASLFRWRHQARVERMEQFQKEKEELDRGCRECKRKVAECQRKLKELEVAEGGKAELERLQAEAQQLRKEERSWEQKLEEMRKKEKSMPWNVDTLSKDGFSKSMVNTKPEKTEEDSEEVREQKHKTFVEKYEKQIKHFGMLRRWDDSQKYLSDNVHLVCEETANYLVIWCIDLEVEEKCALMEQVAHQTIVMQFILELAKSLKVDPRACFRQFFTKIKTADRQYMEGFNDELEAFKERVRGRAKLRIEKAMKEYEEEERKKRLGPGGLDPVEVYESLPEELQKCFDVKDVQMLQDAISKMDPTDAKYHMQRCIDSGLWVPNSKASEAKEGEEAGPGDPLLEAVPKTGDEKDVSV
Nature of the assay: pull-down; both purified.

Assay [10] addresses GSTCDK4 (human) (UniProt P11802). Nature of the assay: co-purification (GST affinity, then size-exclusion chromatography).
The target is the same in assay [11]. Nature of the assay: AlphaScreen or HTRF; both purified.
For assay [12], the target named is T2, Avi-tagged Kcyclin (Kaposi's sarcoma-associated herpesvirus) (UniProt Q77Q36).
T2 sequence (chain, biotin (on the Avi tag)): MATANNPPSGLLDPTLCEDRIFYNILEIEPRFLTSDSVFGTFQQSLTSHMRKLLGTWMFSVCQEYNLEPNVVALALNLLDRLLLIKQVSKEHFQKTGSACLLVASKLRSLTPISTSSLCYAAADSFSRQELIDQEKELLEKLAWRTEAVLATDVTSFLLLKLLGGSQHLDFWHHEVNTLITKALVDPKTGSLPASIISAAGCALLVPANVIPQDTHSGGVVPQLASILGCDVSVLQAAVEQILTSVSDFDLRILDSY
Nature of the assay: pull-down; both purified.

Consider “cyclin D1 (from UniProt P24385 1-295) (other; other documents disagree on this pair)”, for which the binding result (in assay [1]; in the assay with GSTCDK6 (human) [2]; with GSTCDK6 (human) [3]) was “binds” throughout.
As to “p27KIP1 residues 1-106 (from UniProt P46527 1-106) (domain or fragment)”, the binding entry in assay [4], in assay [5], in assay [6] and in [7] was “binds” each time.
Regarding cyclin D1 (from UniProt P24385 1-295), the binding entry was “binds” in assay [8], “no binding” in assay [9], “binds” in the assay with GSTCDK4 (human) [10] and “binds” with GSTCDK4 (human) [11].
For the substance “CDK6 (of the CDK6-cyclin D1/D3 complexes used in the FLAG-Cdc37 pull-down) (from UniProt Q00534 1-326) (enzyme)”, the binding entry in assay [9] was “binds”.
With “GSTCDK6 (from UniProt Q00534 1-326) (enzyme)”, in assay [12], the binding entry was “binds”.
“p21CIP1 residues 1-87 (from UniProt P38936 1-87) (domain or fragment)”: the binding result in assay [7] was “binds”.
In the case of cyclin D3 (from UniProt P30281 1-292), the binding result is listed as “binds” in assay [1]; “binds” in assay [8]; “no binding” in [9]; “binds” with GSTCDK6 (human) [2]; “binds” in the assay with GSTCDK4 (human) [10]; “binds” in the assay with GSTCDK6 (human) [3]. For the same substance, the binding entry in the assay with GSTCDK4 (human) [11] was “binds”.
